Assay results from paper PMC13254257.
These are yes or no findings as the source states them, for the method shown. In cells and extracts the contact can be indirect. Tags and fused reporters may be left off the sequences shown.

Target: T1, TMEM65-V5 (transmembrane protein 65 with a V5 tag, endogenous knock-in) (mouse (endogenous in brain)), Q4VAE3
T1 chain: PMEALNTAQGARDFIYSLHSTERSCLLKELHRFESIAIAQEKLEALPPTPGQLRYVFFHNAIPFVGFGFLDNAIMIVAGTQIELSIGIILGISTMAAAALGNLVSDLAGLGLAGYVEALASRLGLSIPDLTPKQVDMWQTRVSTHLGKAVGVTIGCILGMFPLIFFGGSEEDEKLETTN
Test: co-IP; anti-V5 antibody coupled to Dynabeads; brain lysates of homozygous (Tmem65+V5/+V5) or heterozygous (Tmem65+V5/+) TMEM65-V5 mice in 25 mM Tris-HCl pH 7.4, 150 mM NaCl, 1 mM EDTA, 1% NP-40, 1 mM PMSF, 5% glycerol; 4 °C, 30 min; elution with 0.1 M glycine pH 3.0; Western blot
Settings: remark: other sources report otherwise

binding: no binding
B1: NCLX (SLC8B1/SLC24A6), Q925Q3 27-585 (protein)
chain: TGDPSTKAHGHIQFSAGSVNQTAMADCRAVCGLNTSDRCDFVRRNPDCRSEAGYLDYLEGIFCYFPPNLLPLAITLYVFWLLYLFLILGVTAAKFFCPNLSAISTNLKLSHNVAGVTFLAFGNGAPDIFSALVAFSDPRTAGLAIGALFGAGVLVTTVVAGGITILHPFMAASRPFLRDIAFYMVAVFLTFTALYLGRITLTWALGYLGLYVFYVVTVIICTWVYQRQRSRSLVHSISETPELLSESEEDQMSSNTNSYDYGDEYRPLLLGRETTVQILIQALNPLDYRKWRTQSISWRVLKVVKLPVEFLLLLTVPVVDPDKDDRNWKRPLNCLQLVISPLVLVLTLQSGVYGIYEIGGLLPVWAVVVIVGTALASVTFFATSNREPPRLHWLFAFLGFLTSALWINAAATEVVNILRSLGVIFRLSNTVLGLTLLAWGNSIGDAFSDFTLARQGYPRMAFSACFGGIIFNILVGVGLGCLLQIIRNHVVEVKLEPDGLLVWVLASALGLSLIFSLVSVPLQCFQLSKAYGLCLLLFYICFLVVVLLTEFGVIHLKKA
